For five molecules, binding results are on record in PMC8322336.

Amino acid sequences for entries named in this document (tags omitted).
UniProt Q8TDY2: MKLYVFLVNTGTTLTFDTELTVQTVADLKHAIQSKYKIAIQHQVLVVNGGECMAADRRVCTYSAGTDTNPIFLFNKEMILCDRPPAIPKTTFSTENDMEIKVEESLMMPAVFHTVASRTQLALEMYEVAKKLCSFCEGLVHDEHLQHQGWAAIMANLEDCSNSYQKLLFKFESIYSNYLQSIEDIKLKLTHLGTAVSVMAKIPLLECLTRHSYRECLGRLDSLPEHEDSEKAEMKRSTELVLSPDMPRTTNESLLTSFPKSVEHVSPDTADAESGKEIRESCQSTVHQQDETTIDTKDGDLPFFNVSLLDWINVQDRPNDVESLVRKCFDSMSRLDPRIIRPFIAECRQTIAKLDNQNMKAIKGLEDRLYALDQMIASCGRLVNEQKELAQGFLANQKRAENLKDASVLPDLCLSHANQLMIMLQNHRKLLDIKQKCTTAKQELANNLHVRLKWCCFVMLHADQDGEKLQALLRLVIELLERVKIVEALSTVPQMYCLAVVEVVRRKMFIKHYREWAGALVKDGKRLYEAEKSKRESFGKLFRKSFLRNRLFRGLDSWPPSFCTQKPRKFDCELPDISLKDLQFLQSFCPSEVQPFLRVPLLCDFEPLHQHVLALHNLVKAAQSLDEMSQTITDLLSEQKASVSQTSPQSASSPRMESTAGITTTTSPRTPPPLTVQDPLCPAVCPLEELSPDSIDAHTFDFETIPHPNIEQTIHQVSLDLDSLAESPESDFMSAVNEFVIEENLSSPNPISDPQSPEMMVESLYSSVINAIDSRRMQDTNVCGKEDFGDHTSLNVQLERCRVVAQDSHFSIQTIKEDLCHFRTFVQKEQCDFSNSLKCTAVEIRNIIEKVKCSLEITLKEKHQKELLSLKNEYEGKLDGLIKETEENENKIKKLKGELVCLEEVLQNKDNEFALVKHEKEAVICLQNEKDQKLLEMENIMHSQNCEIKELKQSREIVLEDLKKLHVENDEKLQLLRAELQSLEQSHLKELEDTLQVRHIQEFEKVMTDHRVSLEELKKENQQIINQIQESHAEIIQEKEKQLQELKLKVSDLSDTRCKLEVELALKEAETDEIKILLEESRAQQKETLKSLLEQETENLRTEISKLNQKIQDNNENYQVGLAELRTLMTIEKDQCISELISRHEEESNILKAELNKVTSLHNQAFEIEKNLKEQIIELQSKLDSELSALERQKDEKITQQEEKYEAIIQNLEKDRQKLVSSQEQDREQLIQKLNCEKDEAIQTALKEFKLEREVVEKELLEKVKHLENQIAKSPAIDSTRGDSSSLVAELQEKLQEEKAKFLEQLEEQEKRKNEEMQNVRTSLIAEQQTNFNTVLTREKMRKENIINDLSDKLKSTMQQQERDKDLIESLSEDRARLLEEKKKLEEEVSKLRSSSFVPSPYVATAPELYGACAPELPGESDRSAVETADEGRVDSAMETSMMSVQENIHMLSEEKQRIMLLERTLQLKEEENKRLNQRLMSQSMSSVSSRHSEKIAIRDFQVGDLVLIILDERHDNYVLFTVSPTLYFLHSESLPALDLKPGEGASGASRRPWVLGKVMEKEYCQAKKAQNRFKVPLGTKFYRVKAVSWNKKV
UniProt Q9ESK9: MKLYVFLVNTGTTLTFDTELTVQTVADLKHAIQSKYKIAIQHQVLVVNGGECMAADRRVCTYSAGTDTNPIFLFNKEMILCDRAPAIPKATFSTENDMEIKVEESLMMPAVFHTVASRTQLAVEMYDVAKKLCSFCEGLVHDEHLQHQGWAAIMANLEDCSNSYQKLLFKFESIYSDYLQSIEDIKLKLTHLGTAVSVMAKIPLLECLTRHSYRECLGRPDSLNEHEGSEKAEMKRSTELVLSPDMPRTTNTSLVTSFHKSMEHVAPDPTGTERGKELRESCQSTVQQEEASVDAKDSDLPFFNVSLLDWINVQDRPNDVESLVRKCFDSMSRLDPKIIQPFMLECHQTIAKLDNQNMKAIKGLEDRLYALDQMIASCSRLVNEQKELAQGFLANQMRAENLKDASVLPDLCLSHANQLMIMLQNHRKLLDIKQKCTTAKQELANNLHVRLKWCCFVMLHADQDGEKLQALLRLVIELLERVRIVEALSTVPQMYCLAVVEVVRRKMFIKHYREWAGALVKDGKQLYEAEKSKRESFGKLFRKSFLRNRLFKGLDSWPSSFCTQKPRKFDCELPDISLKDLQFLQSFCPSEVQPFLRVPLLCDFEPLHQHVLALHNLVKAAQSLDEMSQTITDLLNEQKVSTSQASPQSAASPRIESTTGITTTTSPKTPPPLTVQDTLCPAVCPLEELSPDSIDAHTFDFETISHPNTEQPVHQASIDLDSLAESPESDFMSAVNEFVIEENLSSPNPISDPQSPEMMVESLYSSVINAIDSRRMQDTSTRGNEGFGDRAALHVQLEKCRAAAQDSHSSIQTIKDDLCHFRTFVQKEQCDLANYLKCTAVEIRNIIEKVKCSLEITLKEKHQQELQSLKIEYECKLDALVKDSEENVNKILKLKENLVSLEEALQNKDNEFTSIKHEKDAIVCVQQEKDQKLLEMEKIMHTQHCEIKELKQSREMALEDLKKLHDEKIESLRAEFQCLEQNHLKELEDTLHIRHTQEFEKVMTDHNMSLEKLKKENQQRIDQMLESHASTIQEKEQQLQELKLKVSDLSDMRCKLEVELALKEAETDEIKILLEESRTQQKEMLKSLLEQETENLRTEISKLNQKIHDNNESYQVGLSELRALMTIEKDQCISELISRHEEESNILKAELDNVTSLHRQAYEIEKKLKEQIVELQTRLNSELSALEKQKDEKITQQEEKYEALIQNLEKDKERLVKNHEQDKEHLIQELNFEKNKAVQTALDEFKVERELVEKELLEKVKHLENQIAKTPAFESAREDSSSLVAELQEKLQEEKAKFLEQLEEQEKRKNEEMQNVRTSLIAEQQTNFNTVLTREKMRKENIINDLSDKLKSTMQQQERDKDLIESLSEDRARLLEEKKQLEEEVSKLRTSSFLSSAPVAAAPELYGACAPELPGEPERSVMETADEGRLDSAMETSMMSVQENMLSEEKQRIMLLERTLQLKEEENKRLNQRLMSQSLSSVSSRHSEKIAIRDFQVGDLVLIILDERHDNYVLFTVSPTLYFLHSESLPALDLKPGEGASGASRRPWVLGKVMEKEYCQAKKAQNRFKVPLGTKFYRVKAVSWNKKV

Results are given in words; binding and its absence hold for the method and conditions named. In cells and extracts the contact can be indirect. Some results given as binding are weak or reduced against the parent protein; the word gives no strength. For part of these data: Tags and fused reporters may be left off the sequences shown.

For assay [1], the target named is T1, endogenous RIG-I of RAW 264.7 macrophages (mouse (endogenous in RAW 264.7)) (UniProt Q6Q899).
T1 sequence: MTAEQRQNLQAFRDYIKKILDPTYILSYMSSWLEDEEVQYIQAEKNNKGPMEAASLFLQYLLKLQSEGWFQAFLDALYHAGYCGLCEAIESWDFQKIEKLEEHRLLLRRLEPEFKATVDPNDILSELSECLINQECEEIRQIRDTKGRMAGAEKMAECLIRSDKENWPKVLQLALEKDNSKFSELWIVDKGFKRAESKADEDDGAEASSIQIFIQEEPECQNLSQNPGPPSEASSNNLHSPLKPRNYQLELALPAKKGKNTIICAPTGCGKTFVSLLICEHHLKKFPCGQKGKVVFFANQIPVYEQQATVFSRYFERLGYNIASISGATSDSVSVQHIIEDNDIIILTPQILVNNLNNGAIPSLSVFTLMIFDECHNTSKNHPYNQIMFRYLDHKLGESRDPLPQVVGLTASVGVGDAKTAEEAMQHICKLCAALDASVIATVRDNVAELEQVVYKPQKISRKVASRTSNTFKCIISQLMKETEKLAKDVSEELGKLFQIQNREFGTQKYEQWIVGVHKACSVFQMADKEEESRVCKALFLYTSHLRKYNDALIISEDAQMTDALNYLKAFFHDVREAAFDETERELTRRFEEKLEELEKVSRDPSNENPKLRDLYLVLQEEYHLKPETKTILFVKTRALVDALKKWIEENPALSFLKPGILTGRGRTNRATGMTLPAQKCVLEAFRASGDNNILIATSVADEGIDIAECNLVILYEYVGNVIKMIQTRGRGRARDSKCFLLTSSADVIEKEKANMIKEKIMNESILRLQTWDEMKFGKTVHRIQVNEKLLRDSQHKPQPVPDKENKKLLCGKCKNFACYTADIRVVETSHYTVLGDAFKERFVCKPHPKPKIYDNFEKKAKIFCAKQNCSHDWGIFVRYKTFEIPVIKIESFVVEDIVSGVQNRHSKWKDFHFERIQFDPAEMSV
Description: co-IP; RAW 264.7 macrophages transfected with 1 ug/ml poly(I:C) for 2 h; endogenous proteins, immunoprecipitated with anti-RIG-I antibody or control IgG.

The target of assay [2] is FLAG-tagged FIP200 (not stated (a human plasmid, pMXs-IP-EGFP-hFIP200, is named)) (UniProt Q8TDY2). Description: co-IP; HEK293 cells co-transfected with tagged constructs, 48 h; TAP lysis buffer (50 mM Tris-HCl pH 7.5, 10 mM MgCl2, 100 mM NaCl, 0.5% NP-40, 10% glycerol); antibody plus protein A/G agarose or anti-FLAG M2 gel overnight at 4 C.
In assay [3] the target is endogenous FIP200 of A549 cells (human (endogenous in A549)) (UniProt Q8TDY2). Put plainly: proximity ligation; A549 cells transfected with 1 ug/ml poly(I:C) for 2 h, fixed; endogenous proteins; Duolink In Situ kit.
Assay [4] has as its target FIP200 (transfected, tags not shown) (not stated (a human plasmid, pMXs-IP-EGFP-hFIP200, is named)) (UniProt Q8TDY2). Description: co-IP; HEK293 cells co-transfected with tagged constructs, 48 h; TAP lysis buffer (50 mM Tris-HCl pH 7.5, 10 mM MgCl2, 100 mM NaCl, 0.5% NP-40, 10% glycerol); antibody plus protein A/G agarose or anti-FLAG M2 gel overnight at 4 C.
For assay [5], the target named is HA-tagged FIP200 (not stated (a human plasmid, pMXs-IP-EGFP-hFIP200, is named)) (UniProt Q8TDY2). The description is as above.

As to “endogenous FIP200 of RAW 264.7 macrophages (from UniProt Q9ESK9 1-1588)”, the binding entry in assay [1] is recorded as “binds”.

B1: Myc-tagged RIG-I (protein, UniProt O95786 1-925)
chain: MTTEQRRSLQAFQDYIRKTLDPTYILSYMAPWFREEEVQYIQAEKNNKGPMEAATLFLKFLLELQEEGWFRGFLDALDHAGYSGLYEAIESWDFKKIEKLEEYRLLLKRLQPEFKTRIIPTDIISDLSECLINQECEEILQICSTKGMMAGAEKLVECLLRSDKENWPKTLKLALEKERNKFSELWIVEKGIKDVETEDLEDKMETSDIQIFYQEDPECQNLSENSCPPSEVSDTNLYSPFKPRNYQLELALPAMKGKNTIICAPTGCGKTFVSLLICEHHLKKFPQGQKGKVVFFANQIPVYEQQKSVFSKYFERHGYRVTGISGATAENVPVEQIVENNDIIILTPQILVNNLKKGTIPSLSIFTLMIFDECHNTSKQHPYNMIMFNYLDQKLGGSSGPLPQVIGLTASVGVGDAKNTDEALDYICKLCASLDASVIATVKHNLEELEQVVYKPQKFFRKVESRISDKFKYIIAQLMRDTESLAKRICKDLENLSQIQNREFGTQKYEQWIVTVQKACMVFQMPDKDEESRICKALFLYTSHLRKYNDALIISEHARMKDALDYLKDFFSNVRAAGFDEIEQDLTQRFEEKLQELESVSRDPSNENPKLEDLCFILQEEYHLNPETITILFVKTRALVDALKNWIEGNPKLSFLKPGILTGRGKTNQNTGMTLPAQKCILDAFKASGDHNILIATSVADEGIDIAQCNLVILYEYVGNVIKMIQTRGRGRARGSKCFLLTSNAGVIEKEQINMYKEKMMNDSILRLQTWDEAVFREKILHIQTHEKFIRDSQEKPKPVPDKENKKLLCRKCKALACYTADVRVIEECHYTVLGDAFKECFVSRPHPKPKQFSSFEKRAKIFCARQNCSHDWGIHVKYKTFEIPVIKIESFVVEDIATGVQTLYSKWKDFHFEKIPFDPAEMSK
As for B1, in assay [2], the binding entry is “binds”.

B2: endogenous RIG-I of A549 cells (protein, UniProt O95786 1-925)
chain: MTTEQRRSLQAFQDYIRKTLDPTYILSYMAPWFREEEVQYIQAEKNNKGPMEAATLFLKFLLELQEEGWFRGFLDALDHAGYSGLYEAIESWDFKKIEKLEEYRLLLKRLQPEFKTRIIPTDIISDLSECLINQECEEILQICSTKGMMAGAEKLVECLLRSDKENWPKTLKLALEKERNKFSELWIVEKGIKDVETEDLEDKMETSDIQIFYQEDPECQNLSENSCPPSEVSDTNLYSPFKPRNYQLELALPAMKGKNTIICAPTGCGKTFVSLLICEHHLKKFPQGQKGKVVFFANQIPVYEQQKSVFSKYFERHGYRVTGISGATAENVPVEQIVENNDIIILTPQILVNNLKKGTIPSLSIFTLMIFDECHNTSKQHPYNMIMFNYLDQKLGGSSGPLPQVIGLTASVGVGDAKNTDEALDYICKLCASLDASVIATVKHNLEELEQVVYKPQKFFRKVESRISDKFKYIIAQLMRDTESLAKRICKDLENLSQIQNREFGTQKYEQWIVTVQKACMVFQMPDKDEESRICKALFLYTSHLRKYNDALIISEHARMKDALDYLKDFFSNVRAAGFDEIEQDLTQRFEEKLQELESVSRDPSNENPKLEDLCFILQEEYHLNPETITILFVKTRALVDALKNWIEGNPKLSFLKPGILTGRGKTNQNTGMTLPAQKCILDAFKASGDHNILIATSVADEGIDIAQCNLVILYEYVGNVIKMIQTRGRGRARGSKCFLLTSNAGVIEKEQINMYKEKMMNDSILRLQTWDEAVFREKILHIQTHEKFIRDSQEKPKPVPDKENKKLLCRKCKALACYTADVRVIEECHYTVLGDAFKECFVSRPHPKPKQFSSFEKRAKIFCARQNCSHDWGIHVKYKTFEIPVIKIESFVVEDIATGVQTLYSKWKDFHFEKIPFDPAEMSK
As for B2, in assay [3], the binding entry is reported as “binds”.

B3: wild-type RIG-I (transfected, tag not shown) (protein, UniProt O95786 1-925)
chain: MTTEQRRSLQAFQDYIRKTLDPTYILSYMAPWFREEEVQYIQAEKNNKGPMEAATLFLKFLLELQEEGWFRGFLDALDHAGYSGLYEAIESWDFKKIEKLEEYRLLLKRLQPEFKTRIIPTDIISDLSECLINQECEEILQICSTKGMMAGAEKLVECLLRSDKENWPKTLKLALEKERNKFSELWIVEKGIKDVETEDLEDKMETSDIQIFYQEDPECQNLSENSCPPSEVSDTNLYSPFKPRNYQLELALPAMKGKNTIICAPTGCGKTFVSLLICEHHLKKFPQGQKGKVVFFANQIPVYEQQKSVFSKYFERHGYRVTGISGATAENVPVEQIVENNDIIILTPQILVNNLKKGTIPSLSIFTLMIFDECHNTSKQHPYNMIMFNYLDQKLGGSSGPLPQVIGLTASVGVGDAKNTDEALDYICKLCASLDASVIATVKHNLEELEQVVYKPQKFFRKVESRISDKFKYIIAQLMRDTESLAKRICKDLENLSQIQNREFGTQKYEQWIVTVQKACMVFQMPDKDEESRICKALFLYTSHLRKYNDALIISEHARMKDALDYLKDFFSNVRAAGFDEIEQDLTQRFEEKLQELESVSRDPSNENPKLEDLCFILQEEYHLNPETITILFVKTRALVDALKNWIEGNPKLSFLKPGILTGRGKTNQNTGMTLPAQKCILDAFKASGDHNILIATSVADEGIDIAQCNLVILYEYVGNVIKMIQTRGRGRARGSKCFLLTSNAGVIEKEQINMYKEKMMNDSILRLQTWDEAVFREKILHIQTHEKFIRDSQEKPKPVPDKENKKLLCRKCKALACYTADVRVIEECHYTVLGDAFKECFVSRPHPKPKQFSSFEKRAKIFCARQNCSHDWGIHVKYKTFEIPVIKIESFVVEDIATGVQTLYSKWKDFHFEKIPFDPAEMSK
For B3, the binding entry in assay [4] and in assay [5] was “binds” in each case.

B4: HA-tagged RIG-I (protein, UniProt O95786 1-925)
chain: MTTEQRRSLQAFQDYIRKTLDPTYILSYMAPWFREEEVQYIQAEKNNKGPMEAATLFLKFLLELQEEGWFRGFLDALDHAGYSGLYEAIESWDFKKIEKLEEYRLLLKRLQPEFKTRIIPTDIISDLSECLINQECEEILQICSTKGMMAGAEKLVECLLRSDKENWPKTLKLALEKERNKFSELWIVEKGIKDVETEDLEDKMETSDIQIFYQEDPECQNLSENSCPPSEVSDTNLYSPFKPRNYQLELALPAMKGKNTIICAPTGCGKTFVSLLICEHHLKKFPQGQKGKVVFFANQIPVYEQQKSVFSKYFERHGYRVTGISGATAENVPVEQIVENNDIIILTPQILVNNLKKGTIPSLSIFTLMIFDECHNTSKQHPYNMIMFNYLDQKLGGSSGPLPQVIGLTASVGVGDAKNTDEALDYICKLCASLDASVIATVKHNLEELEQVVYKPQKFFRKVESRISDKFKYIIAQLMRDTESLAKRICKDLENLSQIQNREFGTQKYEQWIVTVQKACMVFQMPDKDEESRICKALFLYTSHLRKYNDALIISEHARMKDALDYLKDFFSNVRAAGFDEIEQDLTQRFEEKLQELESVSRDPSNENPKLEDLCFILQEEYHLNPETITILFVKTRALVDALKNWIEGNPKLSFLKPGILTGRGKTNQNTGMTLPAQKCILDAFKASGDHNILIATSVADEGIDIAQCNLVILYEYVGNVIKMIQTRGRGRARGSKCFLLTSNAGVIEKEQINMYKEKMMNDSILRLQTWDEAVFREKILHIQTHEKFIRDSQEKPKPVPDKENKKLLCRKCKALACYTADVRVIEECHYTVLGDAFKECFVSRPHPKPKQFSSFEKRAKIFCARQNCSHDWGIHVKYKTFEIPVIKIESFVVEDIATGVQTLYSKWKDFHFEKIPFDPAEMSK
For the molecule B4, in assay [2], the binding entry is reported as “binds”.
